Test results: the supplement of paper PMC6411743
± gives the standard deviation of the averaged measurements. This is a selection; strong and weak results do not stand in their true shares.

Amino acid sequences for entries named in this document (tags omitted). A change or cut given only in a name is not applied to a line headed by its entry.
UniProt Q9NZJ9: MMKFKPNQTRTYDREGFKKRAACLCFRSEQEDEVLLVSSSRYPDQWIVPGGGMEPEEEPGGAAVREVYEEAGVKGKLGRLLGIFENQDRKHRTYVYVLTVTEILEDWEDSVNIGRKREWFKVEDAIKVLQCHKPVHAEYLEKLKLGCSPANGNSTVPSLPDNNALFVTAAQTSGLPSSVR
UniProt Q9NZB2: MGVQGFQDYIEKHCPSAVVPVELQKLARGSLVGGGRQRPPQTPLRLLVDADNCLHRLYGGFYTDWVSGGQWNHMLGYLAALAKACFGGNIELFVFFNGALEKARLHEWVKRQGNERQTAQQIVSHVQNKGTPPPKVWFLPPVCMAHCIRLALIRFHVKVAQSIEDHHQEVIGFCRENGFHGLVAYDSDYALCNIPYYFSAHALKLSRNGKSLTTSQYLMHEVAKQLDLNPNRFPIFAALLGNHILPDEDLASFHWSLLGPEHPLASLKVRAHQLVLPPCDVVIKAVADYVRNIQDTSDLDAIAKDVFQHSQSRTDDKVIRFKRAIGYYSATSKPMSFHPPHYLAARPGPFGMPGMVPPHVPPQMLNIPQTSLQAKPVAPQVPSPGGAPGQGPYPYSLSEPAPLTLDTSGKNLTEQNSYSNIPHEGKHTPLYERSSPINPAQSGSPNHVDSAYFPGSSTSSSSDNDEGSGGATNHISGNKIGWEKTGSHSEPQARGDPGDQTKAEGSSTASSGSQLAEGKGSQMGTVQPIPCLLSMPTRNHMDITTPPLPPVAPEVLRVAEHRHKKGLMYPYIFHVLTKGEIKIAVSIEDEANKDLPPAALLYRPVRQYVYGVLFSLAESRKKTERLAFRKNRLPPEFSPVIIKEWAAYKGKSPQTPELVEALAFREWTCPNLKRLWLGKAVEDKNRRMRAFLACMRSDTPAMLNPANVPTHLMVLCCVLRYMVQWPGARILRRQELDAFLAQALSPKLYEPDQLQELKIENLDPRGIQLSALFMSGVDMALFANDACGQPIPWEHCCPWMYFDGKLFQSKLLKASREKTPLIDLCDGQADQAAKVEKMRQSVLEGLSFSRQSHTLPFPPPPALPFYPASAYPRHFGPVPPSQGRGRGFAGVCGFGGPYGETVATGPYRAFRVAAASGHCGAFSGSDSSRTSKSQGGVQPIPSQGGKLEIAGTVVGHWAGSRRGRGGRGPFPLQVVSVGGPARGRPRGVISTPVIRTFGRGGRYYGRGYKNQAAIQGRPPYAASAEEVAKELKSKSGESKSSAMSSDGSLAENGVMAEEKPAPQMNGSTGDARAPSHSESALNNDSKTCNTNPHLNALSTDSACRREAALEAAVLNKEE
UniProt Q9NRB3: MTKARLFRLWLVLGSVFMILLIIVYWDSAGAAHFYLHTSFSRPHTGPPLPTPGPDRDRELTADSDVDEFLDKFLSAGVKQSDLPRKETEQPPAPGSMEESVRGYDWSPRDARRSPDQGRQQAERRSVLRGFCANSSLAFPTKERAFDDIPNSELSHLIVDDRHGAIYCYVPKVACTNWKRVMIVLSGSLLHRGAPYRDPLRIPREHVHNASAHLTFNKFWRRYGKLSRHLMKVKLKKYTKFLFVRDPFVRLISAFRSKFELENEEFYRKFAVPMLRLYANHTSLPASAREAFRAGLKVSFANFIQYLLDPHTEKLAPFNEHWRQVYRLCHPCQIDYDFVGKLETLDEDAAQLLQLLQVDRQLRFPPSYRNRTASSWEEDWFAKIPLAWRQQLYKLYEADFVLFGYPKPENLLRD
UniProt Q9NXX6: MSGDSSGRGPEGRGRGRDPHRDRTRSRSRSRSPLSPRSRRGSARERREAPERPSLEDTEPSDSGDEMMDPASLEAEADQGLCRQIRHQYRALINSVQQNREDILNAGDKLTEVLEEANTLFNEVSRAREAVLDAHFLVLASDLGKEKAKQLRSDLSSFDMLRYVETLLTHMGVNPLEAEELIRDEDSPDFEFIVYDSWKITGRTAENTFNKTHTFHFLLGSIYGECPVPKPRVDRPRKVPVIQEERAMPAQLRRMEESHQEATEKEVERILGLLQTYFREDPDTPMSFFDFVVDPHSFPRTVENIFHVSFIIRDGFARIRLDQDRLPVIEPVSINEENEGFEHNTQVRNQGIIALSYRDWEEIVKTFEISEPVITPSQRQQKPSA
UniProt Q9NUT2: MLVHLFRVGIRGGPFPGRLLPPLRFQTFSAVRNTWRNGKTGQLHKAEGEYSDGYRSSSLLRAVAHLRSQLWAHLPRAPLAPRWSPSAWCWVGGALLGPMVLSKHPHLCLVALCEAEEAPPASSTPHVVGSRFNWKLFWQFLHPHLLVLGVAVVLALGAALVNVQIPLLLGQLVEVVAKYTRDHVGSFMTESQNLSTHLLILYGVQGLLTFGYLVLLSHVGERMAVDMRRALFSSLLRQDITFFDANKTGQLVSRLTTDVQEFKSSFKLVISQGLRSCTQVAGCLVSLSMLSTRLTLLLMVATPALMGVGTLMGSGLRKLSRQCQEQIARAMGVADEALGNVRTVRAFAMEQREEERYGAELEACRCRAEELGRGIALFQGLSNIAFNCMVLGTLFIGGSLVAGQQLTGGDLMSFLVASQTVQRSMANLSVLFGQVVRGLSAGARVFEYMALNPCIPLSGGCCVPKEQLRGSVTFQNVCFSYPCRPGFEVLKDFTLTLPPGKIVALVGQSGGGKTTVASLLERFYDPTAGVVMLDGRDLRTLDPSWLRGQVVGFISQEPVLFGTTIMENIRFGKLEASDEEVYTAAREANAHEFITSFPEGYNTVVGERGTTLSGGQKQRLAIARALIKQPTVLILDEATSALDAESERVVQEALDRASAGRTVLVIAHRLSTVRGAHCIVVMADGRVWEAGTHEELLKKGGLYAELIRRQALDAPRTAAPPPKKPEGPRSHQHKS
UniProt Q9NQH7: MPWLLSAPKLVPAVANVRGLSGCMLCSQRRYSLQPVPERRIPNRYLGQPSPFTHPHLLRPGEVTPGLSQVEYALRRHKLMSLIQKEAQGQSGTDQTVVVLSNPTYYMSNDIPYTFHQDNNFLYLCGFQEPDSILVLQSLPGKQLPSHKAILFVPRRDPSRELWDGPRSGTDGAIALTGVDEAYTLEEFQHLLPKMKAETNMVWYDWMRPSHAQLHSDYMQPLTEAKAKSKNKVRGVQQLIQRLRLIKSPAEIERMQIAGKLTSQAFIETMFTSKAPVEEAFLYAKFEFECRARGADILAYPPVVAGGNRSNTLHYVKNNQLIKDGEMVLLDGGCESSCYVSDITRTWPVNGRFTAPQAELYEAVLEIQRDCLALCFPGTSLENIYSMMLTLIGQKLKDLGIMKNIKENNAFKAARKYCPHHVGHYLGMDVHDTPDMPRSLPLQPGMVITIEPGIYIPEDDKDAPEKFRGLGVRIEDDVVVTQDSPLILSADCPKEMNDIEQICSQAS
UniProt Q9NW68: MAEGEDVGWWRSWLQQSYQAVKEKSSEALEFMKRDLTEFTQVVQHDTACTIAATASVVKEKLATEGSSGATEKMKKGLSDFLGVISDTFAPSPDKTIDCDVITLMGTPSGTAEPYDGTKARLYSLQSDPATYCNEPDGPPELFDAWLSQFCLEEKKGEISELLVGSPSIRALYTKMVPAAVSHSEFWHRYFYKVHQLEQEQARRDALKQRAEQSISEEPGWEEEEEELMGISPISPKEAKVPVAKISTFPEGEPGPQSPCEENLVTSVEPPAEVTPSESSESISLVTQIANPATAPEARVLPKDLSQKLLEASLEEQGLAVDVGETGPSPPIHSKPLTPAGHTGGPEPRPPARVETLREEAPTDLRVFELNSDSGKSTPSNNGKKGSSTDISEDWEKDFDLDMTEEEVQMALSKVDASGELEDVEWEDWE
UniProt Q9NV35: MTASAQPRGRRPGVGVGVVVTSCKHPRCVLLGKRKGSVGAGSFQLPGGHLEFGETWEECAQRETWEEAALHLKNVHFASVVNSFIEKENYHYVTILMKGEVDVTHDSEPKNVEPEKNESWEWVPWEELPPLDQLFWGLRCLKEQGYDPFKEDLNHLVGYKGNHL
UniProt Q9NPF5, whole entry: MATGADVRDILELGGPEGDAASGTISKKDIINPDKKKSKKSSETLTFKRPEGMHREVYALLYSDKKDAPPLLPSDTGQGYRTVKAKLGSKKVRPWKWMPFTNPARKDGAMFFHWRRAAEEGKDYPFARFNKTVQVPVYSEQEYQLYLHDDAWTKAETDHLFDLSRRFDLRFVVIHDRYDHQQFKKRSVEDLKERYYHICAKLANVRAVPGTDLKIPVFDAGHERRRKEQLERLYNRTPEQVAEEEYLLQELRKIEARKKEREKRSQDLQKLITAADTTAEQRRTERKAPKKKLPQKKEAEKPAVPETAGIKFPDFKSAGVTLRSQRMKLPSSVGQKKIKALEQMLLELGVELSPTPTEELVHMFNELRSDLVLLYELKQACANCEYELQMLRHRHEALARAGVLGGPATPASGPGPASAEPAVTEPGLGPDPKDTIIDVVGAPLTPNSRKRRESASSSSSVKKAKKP
UniProt Q9NVW2: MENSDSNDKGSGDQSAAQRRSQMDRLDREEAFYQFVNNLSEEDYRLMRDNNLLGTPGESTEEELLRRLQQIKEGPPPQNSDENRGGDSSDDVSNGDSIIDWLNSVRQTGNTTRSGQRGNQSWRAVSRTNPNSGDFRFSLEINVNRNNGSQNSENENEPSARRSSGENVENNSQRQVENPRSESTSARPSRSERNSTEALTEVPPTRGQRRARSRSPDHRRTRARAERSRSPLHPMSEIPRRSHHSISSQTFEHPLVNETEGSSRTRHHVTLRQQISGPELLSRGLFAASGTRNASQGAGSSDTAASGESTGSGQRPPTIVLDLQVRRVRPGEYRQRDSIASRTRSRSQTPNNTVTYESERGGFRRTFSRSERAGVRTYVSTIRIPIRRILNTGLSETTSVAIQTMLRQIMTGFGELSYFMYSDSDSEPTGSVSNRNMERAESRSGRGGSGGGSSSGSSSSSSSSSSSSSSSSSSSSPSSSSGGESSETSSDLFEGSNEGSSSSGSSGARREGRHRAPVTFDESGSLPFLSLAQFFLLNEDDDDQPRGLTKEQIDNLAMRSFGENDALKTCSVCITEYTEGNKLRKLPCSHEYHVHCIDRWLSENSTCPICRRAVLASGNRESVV
UniProt Q9NQC3: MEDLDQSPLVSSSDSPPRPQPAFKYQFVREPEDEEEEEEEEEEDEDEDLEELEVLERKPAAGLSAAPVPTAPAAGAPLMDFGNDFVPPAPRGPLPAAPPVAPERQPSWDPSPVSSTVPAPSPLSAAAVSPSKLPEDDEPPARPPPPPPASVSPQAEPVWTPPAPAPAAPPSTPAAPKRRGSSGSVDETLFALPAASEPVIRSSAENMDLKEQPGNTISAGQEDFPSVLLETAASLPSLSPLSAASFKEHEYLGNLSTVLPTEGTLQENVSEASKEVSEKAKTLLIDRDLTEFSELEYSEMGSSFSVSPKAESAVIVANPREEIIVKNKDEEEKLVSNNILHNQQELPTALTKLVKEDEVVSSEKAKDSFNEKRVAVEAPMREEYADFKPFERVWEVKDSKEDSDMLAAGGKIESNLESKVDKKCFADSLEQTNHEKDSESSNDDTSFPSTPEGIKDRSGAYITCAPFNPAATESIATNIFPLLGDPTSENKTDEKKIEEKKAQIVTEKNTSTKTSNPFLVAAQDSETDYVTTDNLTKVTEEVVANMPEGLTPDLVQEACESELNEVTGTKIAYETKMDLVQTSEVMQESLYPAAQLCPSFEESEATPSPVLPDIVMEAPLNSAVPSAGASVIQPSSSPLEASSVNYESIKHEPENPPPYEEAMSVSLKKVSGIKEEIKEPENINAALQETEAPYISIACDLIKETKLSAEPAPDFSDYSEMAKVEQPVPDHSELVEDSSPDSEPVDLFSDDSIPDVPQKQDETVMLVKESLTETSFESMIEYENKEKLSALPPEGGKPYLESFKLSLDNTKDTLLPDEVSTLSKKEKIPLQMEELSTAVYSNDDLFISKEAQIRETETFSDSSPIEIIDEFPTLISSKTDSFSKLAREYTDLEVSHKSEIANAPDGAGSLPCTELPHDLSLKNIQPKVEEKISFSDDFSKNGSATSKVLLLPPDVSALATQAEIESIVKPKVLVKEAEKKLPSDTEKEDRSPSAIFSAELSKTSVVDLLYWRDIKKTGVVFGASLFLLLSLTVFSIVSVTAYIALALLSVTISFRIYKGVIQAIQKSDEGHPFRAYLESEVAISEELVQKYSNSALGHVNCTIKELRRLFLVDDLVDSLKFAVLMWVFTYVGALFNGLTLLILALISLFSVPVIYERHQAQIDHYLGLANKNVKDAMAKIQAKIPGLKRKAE
UniProt Q9NR28: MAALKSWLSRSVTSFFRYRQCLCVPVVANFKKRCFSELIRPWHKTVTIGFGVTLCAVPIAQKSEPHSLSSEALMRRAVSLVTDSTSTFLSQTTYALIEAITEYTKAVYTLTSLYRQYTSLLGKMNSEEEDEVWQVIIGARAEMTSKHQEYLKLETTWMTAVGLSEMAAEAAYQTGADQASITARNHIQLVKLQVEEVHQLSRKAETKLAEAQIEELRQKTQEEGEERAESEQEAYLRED

Compound: Nc1ncnc2c1ncn2[C@@H]1O[C@H](COP(=O)(O)OP(=O)(O)OP(=O)(O)O)[C@@H](O)[C@H]1O [adenosine triphosphate]
Test: NP40-soluble protein abundance relative to vehicle (solubility fold change) (ratio); higher = more soluble protein in presence of ATP
In short: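 Across three independent experiments, values are fold changes against the detergent-processed vehicle for each replicate, based on vsn-normalised intensities. The samples were Jurkat crude lysate treated with eight concentrations (0.1 to 10 mM) for 10 min at room temperature and then 3 min at 37 °C. Lysate was solubilised with 0.8% NP40 and benzonase, ultracentrifuged, and the supernatant analysed by TMT-labelled LC-MS/MS.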

Target	NP40-soluble protein abundance (concentration: 1mM)	NP40-soluble protein abundance (concentration: 2mM)	NP40-soluble protein abundance (concentration: 4mM)	NP40-soluble protein abundance (concentration: 6mM)	NP40-soluble protein abundance (concentration: 8mM)	NP40-soluble protein abundance (concentration: 10mM)
UniProt Q9NSB8 and related entries	0.949 ± 0.073	1.1 ± 0.017	1.04 ± 0.088	1.09 ± 0.088	1.07 ± 0.13	1.11 ± 0.059
ABCB10 (UniProt Q9NRK6)	1 ± 0.076	1.02 ± 0.072	1 ± 0.037	0.945 ± 0.072	0.987 ± 0.036	1 ± 0.063
UniProt Q9NZB8 and related entries	0.991 ± 0.026	0.985 ± 0.017	0.94 ± 0.031	0.941 ± 0.052	0.965 ± 0.021	0.965 ± 0.029
UniProt Q9NS23-4	1.11 ± 0.084	1.17 ± 0.12	1.14 ± 0.045	1.12 ± 0.16	1.15 ± 0.08	1.11 ± 0.015
LANCL2 (UniProt Q9NS86)	0.985 ± 0.074	0.975 ± 0.047	0.986 ± 0.027	0.93 ± 0.062	0.977 ± 0.052	1.015 ± 0.0027
NUDT4 (UniProt Q9NZJ9)	0.975 ± 0.027	0.94 ± 0.052	0.994 ± 0.049	0.88 ± 0.04	0.964 ± 0.031	0.919 ± 0.11
UniProt Q9P0U4 and related entries	1.02 ± 0.025	1.01 ± 0.045	1.04 ± 0.059	1.03 ± 0.061	1.04 ± 0.086	1.06 ± 0.063
SIRT5 (UniProt Q9NXA8)	0.964 ± 0.068	1.01 ± 0.032	1.01 ± 0.025	0.992 ± 0.037	0.955 ± 0.025	0.985 ± 0.03
UniProt Q9NVM9	1.03 ± 0.021	1.03 ± 0.019	1.04 ± 0.011	1.08 ± 0.033	1.08 ± 0.019	1.07 ± 0.035
UniProt Q9NZB2 and related entries	1.05 ± 0.038	1.01 ± 0.035	1.04 ± 0.05	1.08 ± 0.088	1.12 ± 0.055	1.15 ± 0.075
UniProt Q9NWR8	1.08 ± 0.017	1.05 ± 0.016	1.04 ± 0.041	0.9713 ± 0.0057	1.06 ± 0.035	1.04 ± 0.094
UBP1 (UniProt Q9NZI7)	1.04 ± 0.028	1.03 ± 0.021	1.045 ± 0.002	1.01 ± 0.043	1.01 ± 0.029	1.05 ± 0.067
CHST12 (UniProt Q9NRB3)	0.903 ± 0.03	0.984 ± 0.03	1.01 ± 0.049	0.954 ± 0.095	0.901 ± 0.023	0.917 ± 0.1
UniProt Q9NSI2 and related entries	1.02 ± 0.045	0.935 ± 0.018	0.91 ± 0.08	0.873 ± 0.066	0.882 ± 0.038	0.884 ± 0.063
UniProt Q9NX74	1.06 ± 0.13	1.07 ± 0.14	1.09 ± 0.16	1.07 ± 0.2	1.08 ± 0.14	1.06 ± 0.15
NSMCE4A (UniProt Q9NXX6)	1.03 ± 0.054	1.04 ± 0.054	1.02 ± 0.015	0.973 ± 0.04	1.03 ± 0.031	1.03 ± 0.06
KCTD5 (UniProt Q9NXV2)	0.9774 ± 0.0046	0.994 ± 0.081	0.98 ± 0.023	0.938 ± 0.11	0.933 ± 0.099	0.96 ± 0.07
UniProt Q9NUT2 and related entries	1.03 ± 0.06	0.985 ± 0.053	1.03 ± 0.061	0.996 ± 0.1	1.02 ± 0.054	1 ± 0.074

Full records from above. Order of values: NP40-soluble protein abundance (concentration: 1mM) | NP40-soluble protein abundance (concentration: 2mM) | NP40-soluble protein abundance (concentration: 4mM) | NP40-soluble protein abundance (concentration: 6mM) | NP40-soluble protein abundance (concentration: 8mM) | NP40-soluble protein abundance (concentration: 10mM)
NUDT4 (UniProt Q9NZJ9) as listed: 0.975 ± 0.027 | 0.94 ± 0.052 | 0.994 ± 0.049 | 0.88 ± 0.04 | 0.964 ± 0.031 | 0.919 ± 0.11
UniProt Q9NZB8 and related entries as listed: 0.991 ± 0.026 | 0.985 ± 0.017 | 0.94 ± 0.031 | 0.941 ± 0.052 | 0.965 ± 0.021 | 0.965 ± 0.029

Further results follow.

Target	NP40-soluble protein abundance (concentration: 1mM)	NP40-soluble protein abundance (concentration: 2mM)	NP40-soluble protein abundance (concentration: 4mM)	NP40-soluble protein abundance (concentration: 6mM)	NP40-soluble protein abundance (concentration: 8mM)	NP40-soluble protein abundance (concentration: 10mM)
UniProt Q9NQH7 and related entries	1.06 ± 0.087	0.996 ± 0.057	1.02 ± 0.035	0.987 ± 0.059	1.03 ± 0.017	1 ± 0.044
BSDC1 (UniProt Q9NW68)	0.924 ± 0.024	0.913 ± 0.015	0.909 ± 0.013	0.969 ± 0.019	0.916 ± 0.051	0.873 ± 0.041
UniProt Q9NZM5	0.916 ± 0.11	0.927 ± 0.071	0.96 ± 0.041	0.918 ± 0.03	0.849 ± 0.027	0.832 ± 0.034
NUDT15 (UniProt Q9NV35)	0.994 ± 0.043	1.01 ± 0.035	0.978 ± 0.051	0.989 ± 0.013	0.979 ± 0.026	0.947 ± 0.063
DMAP1 (UniProt Q9NPF5)	0.968 ± 0.028	0.957 ± 0.017	0.957 ± 0.037	0.997 ± 0.11	1.04 ± 0.042	1.06 ± 0.024
RLIM (UniProt Q9NVW2)	1.07 ± 0.17	1.04 ± 0.19	1.12 ± 0.16	1.12 ± 0.25	1.06 ± 0.23	1.06 ± 0.17
TMOD2 (UniProt Q9NZR1)	1.02 ± 0.082	1.01 ± 0.042	1.04 ± 0.065	1.06 ± 0.072	1.05 ± 0.071	1 ± 0.1
TM7SF3 (UniProt Q9NS93)	0.96 ± 0.016	0.953 ± 0.023	0.93 ± 0.053	0.966 ± 0.054	0.934 ± 0.036	0.924 ± 0.056
UniProt Q9NXK8 and related entries	1.02 ± 0.1	1.03 ± 0.087	1.02 ± 0.11	0.979 ± 0.11	1.04 ± 0.058	1.06 ± 0.054
UniProt Q9NVH1 and related entries	1.01 ± 0.056	1.01 ± 0.058	0.955 ± 0.091	1 ± 0.063	1.02 ± 0.035	1.01 ± 0.039
UniProt Q9NX47	0.997 ± 0.092	1.05 ± 0.042	1.04 ± 0.069	0.972 ± 0.13	1.05 ± 0.13	0.994 ± 0.047
RTN4 (UniProt Q9NQC3)	0.963 ± 0.031	0.962 ± 0.0098	0.985 ± 0.027	0.977 ± 0.012	0.971 ± 0.027	0.944 ± 0.042
UniProt Q9NR28 and related entries	0.871 ± 0.049	0.887 ± 0.036	0.877 ± 0.067	0.866 ± 0.07	0.887 ± 0.066	0.838 ± 0.077
UniProt Q9NQX3 and related entries	0.979 ± 0.018	0.9653 ± 0.0058	0.9589 ± 0.0084	0.972 ± 0.015	0.944 ± 0.015	0.953 ± 0.013
MRPL39 (UniProt Q9NYK5)	1.02 ± 0.021	0.949 ± 0.075	0.922 ± 0.1	0.901 ± 0.2	0.918 ± 0.17	0.882 ± 0.15
EXOSC4 (UniProt Q9NPD3)	1.12 ± 0.14	1.12 ± 0.08	1.16 ± 0.08	1.12 ± 0.097	1.23 ± 0.086	1.22 ± 0.036
UniProt Q9NVU7 and related entries	1.02 ± 0.012	1.05 ± 0.02	1.06 ± 0.03	1.06 ± 0.025	1.08 ± 0.014	1.15 ± 0.031
